Measured values reported in publication doi:10.1101/2025.09.26.678755.
Results are given in words; binding and its absence hold for the method and conditions named. Some results given as binding are weak or reduced against the parent protein; the word gives no strength.

Chains of the proteins cited; added tags and fusions are not shown.
UniProt P46934: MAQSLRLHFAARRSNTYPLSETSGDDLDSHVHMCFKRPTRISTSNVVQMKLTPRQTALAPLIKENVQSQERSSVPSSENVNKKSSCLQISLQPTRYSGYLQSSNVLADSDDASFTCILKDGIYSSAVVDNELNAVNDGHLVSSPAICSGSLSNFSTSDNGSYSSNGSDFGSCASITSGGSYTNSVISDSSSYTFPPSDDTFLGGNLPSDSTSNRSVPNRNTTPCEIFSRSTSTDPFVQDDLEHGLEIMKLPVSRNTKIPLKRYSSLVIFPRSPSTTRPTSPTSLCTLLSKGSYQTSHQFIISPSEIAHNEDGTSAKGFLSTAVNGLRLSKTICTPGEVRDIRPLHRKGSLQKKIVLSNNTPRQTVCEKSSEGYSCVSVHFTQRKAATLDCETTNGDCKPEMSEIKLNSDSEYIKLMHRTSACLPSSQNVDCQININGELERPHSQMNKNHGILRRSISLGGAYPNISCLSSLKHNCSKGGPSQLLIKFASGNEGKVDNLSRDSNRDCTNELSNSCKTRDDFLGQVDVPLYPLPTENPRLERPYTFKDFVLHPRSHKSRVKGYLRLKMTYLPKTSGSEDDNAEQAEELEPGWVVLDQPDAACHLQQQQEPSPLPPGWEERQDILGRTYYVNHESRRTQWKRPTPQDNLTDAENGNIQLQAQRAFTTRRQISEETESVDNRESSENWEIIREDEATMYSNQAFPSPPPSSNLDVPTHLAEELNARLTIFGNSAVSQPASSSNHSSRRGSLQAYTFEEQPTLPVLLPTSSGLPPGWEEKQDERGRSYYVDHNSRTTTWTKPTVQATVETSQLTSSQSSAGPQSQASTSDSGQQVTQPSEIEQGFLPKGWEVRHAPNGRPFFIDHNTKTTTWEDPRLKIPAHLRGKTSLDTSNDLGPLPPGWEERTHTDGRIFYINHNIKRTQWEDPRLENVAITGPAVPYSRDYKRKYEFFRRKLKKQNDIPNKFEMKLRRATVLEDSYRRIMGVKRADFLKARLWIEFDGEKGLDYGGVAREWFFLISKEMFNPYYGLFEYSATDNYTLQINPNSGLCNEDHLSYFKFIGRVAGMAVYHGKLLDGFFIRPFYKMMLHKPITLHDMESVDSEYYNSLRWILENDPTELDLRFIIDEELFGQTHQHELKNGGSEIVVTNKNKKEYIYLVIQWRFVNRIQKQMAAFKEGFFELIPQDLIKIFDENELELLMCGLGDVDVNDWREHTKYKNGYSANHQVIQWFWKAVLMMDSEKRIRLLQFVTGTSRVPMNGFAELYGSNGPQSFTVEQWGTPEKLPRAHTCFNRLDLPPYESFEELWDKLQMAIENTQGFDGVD
UniProt O14933: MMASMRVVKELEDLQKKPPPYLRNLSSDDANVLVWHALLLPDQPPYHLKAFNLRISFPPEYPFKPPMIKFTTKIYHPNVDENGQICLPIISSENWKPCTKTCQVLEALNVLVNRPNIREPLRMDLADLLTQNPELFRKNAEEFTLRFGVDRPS

Target: NEDD4 (human) (UniProt P46934)
Test: ITC

- binding: binds
Substance: UbcH8 (from UniProt O14933 1-153) (enzyme)
